# The list is a part of this screen's results and no random one: it gathers tests that were run many times, whatever their T/C, doses with no T/C, and many T/C values between a quarter and a half above the control. Other doses and runs of a compound stand elsewhere. T/C is the treated group as % of the vehicle group. Some doses have a count of surviving animals in place of a T/C: the source holds a T/C of zero for them, seemingly a mark for toxic or unscored doses. Some survivor counts are full or nearly so, which does not show that the dose was tolerated: survival well below the control is almost never listed, so the zero probably covers shortened survival too. Survivors were counted at the toxicity check, usually on the fifth day, unless a day is given; later deaths do not show. Schedule codes are those of the source, read here as Q, the interval in days (D) or hours (H), X, the number of doses. Where survival is the endpoint, this PubChem deposit counts one and a half times the control or more as active, and values a quarter to a half above the control carry no call in these data; other NCI protocols may use other cut-offs. Some T/C values carry the count of animals alive at the toxicity check (mostly the fifth day); where none is given, no animal had died by that day.
# Test system: BDF1 mice, P388 leukemia ip, median survival T/C
# Assay: NCI In Vivo Anticancer Drug Screen. Data for tumor model P388 Leukemia (intraperitoneal) in B6D2F1 (BDF1) mice
# Conditions: T/C endpoint: median survival time, higher T/C = longer survival
# How it was run: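 Reported as T/C, where T is the survival measurement in dosed animals and C the same measurement in vehicle controls.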
# [1] = dose: 200.0 mg/kg/injection, schedule: Q01DX009 (ip), vehicle: saline with Tween-80
# [2] = dose: 100.0 mg/kg/injection, schedule: Q01DX009 (ip), vehicle: saline with Tween-80
compound,measurement,setting,value
CCN1c2ccccc2CC(CCCN(C)C)(C(N)=O)c2ccccc21 (stereo not given),survivor count,"dose: 400.0 mg/kg/injection, schedule: Q01DX009 (ip), vehicle: saline",0 of 6
CCN(CC)Cc1nc2nc(Cl)c(Cl)nc2[nH]1,survivor count,"dose: 12.5 mg/kg/injection, schedule: Q04DX003 (ip), vehicle: saline with Tween-80",5 of 6
same,survivor count,"dose: 100.0 mg/kg/injection, schedule: Q04DX003 (ip), vehicle: saline with Tween-80",0 of 6
same,survivor count,"dose: 200.0 mg/kg/injection, schedule: Q04DX003 (ip), vehicle: saline with Tween-80",0 of 6
C=CCCCCCCCCC(=O)NCCN1CCOCC1,survivor count,[1],5 of 6
CC[N+](CC)(CC)CCCCC[N+](CC)(CC)CC,survivor count,"dose: 50.0 mg/kg/injection, schedule: Q04DX003 (ip), vehicle: water",4 of 6
same,survivor count,"dose: 100.0 mg/kg/injection, schedule: Q04DX003 (ip), vehicle: water",2 of 6
Cc1cc(C)c2nccc(/C=C/c3ccc(N(C)C)cc3)c2c1,T/C,[1],127 % of control
CC(C)NC(=O)OCc1c(COC(=O)NC(C)C)c(-c2ccc(Cl)c(Cl)c2)n2c1CCC2,T/C,"dose: 50.0 mg/kg/injection, schedule: Q01DX009 (ip), vehicle: other",125 % of control
same,survivor count,"dose: 100.0 mg/kg/injection, schedule: Q01DX009 (ip), vehicle: other",6 of 6
same,survivor count,"dose: 200.0 mg/kg/injection, schedule: Q01DX009 (ip), vehicle: other",4 of 6
CCCCCC(=O)O[C@]1(C(C)=O)CC[C@H]2[C@@H]3CCC4=CC(=O)CC[C@]4(C)[C@H]3CC[C@@]21C,T/C,[2],125 % of control [5 of 6 alive]
Clc1ccccc1/C=C/C=C1c2ccccc2-c2ccccc21,survivor count,[2],5 of 6
same,survivor count,[1],6 of 6
same,survivor count,"dose: 400.0 mg/kg/injection, schedule: Q01DX009 (ip), vehicle: saline with Tween-80",5 of 6

# From PubChem BioAssay AID328 (DTP/NCI, 2004)
